Most values lie at the floor of the assay. Slopes are relative: functional sequences can read slightly below zero.
The substances below were run on Saccharomyces cerevisiae PS128 hsf1 delta, HSF1(1-493) fusion (assay: growth estimate (transactivation domain function in HSF1 fusion, heat-shock survival) (a.u. (slope of normalised read count over time)); higher = stronger growth at 37°C, i.e. more transactivation activity). Conditions: library: random library.
Protocol: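 Random 60-nt DNA library encoding peptides of up to 20 aa, fused to the C-terminus of yeast HSF1 residues 1-493 (C-terminal TAD deleted) and expressed from the native HSF1 promoter on a CEN plasmid in hsf1-deleted S. cerevisiae PS128. Cells were selected at 37°C on -trp 5-FOA plates for 0, 2, 4, 6 and 8 days and amplicons were sequenced. Growth estimate is the slope of a robust linear fit of total-sum-normalised read counts (normalised to the first time point) over time, using at least 2 replicates. Sequences are classed functional (TAD activity) above a threshold of -0.13, set from stop-codon control sequences.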

Substance | growth estimate
VLGGRNCHPRQLQPVAGKNV | < -0.25
LSARLIAGT | < -0.25
HISVLSPLGGGVACITTV | < -0.25
GRSPTPRDPSVPGAIRL | < -0.25
SNEIRSRGLAYRELRPLCPP | < -0.25
LVQRNNTWTLCVSGSSAYHS | < -0.25
CGATKTCPCFKAR | < -0.25
PLAARLLTL | < -0.25
SHYWGSREHGPLDDGGRLWS | < -0.25
LDPFETPDFILQCVFGLLTV | < -0.25
TKNWRGGSFGSGWQIGLTHD | -0.173
NRSPSVHQVLPVGCGSSDLP | < -0.25
CGSGDM | < -0.25
TVHDLDTLAGRWCSGFTETR | < -0.25
LLVQCLEGCPIIR | -0.248
THELFVLRSDHSLPEVKRHR | < -0.25
VGVVKT | < -0.25
GGGTFSITRICPPSDQ | < -0.25
TQKCRSSGTRLFGVCSRLCC | < -0.25
CPYRQRSTDLKRCAPPPMKA | < -0.25
SRGHNSYSNPWHTGISRAED | < -0.25
AIVTVEATACASCILVQALL | < -0.25
YIAYFDSTTTTPRGFQCPA | < -0.25

Substance | growth estimate
NLRLETGRPEQVGSLASTRA | < -0.25
DGLLMDLVASNPALSASIAC | < -0.25
LRWERETGFAL | < -0.25
QLLINGCR | < -0.25
RSSVRCSLILTRKRYASKQG | < -0.25
AACYP | -0.209
HHGRQIRGLSIVTQLG | < -0.25
KVSSAFKL | -0.243
TAQSELWKWIHRMFENATAW | < -0.25
QRVRAT | < -0.25
THGEVCMGHSMGPT | < -0.25
RDLLTFRRGIHFITSKTTPP | < -0.25
TVD | < -0.25
TIYCWQGESLASTNVAK | < -0.25
AVIAEADRRMALCESFQVPD | < -0.25
TWVRNKQSTTWPRCTSSTVR | < -0.25
ILHKAPQRSFTRGVAGLAKG | < -0.25
RRQFTTLSAKK | < -0.25
KRNPHGHRCGGICGSCSFAA | < -0.25
LTSAPSS | < -0.25
LIYFTAAEVYPALSSVSGMQ | -0.245
ASSVNGTIPPRA | < -0.25
ATLYGRYQRLMSKGGTHHQP | < -0.25

Substance | growth estimate
EWALIV | < -0.25
DVDGFIVQSDCGQSLPILQQ | < -0.25
QTVSQVRDQNPQHTWVVVSD | < -0.25
SFQVNLKRLDRVFPGY | < -0.25
DKLQRLRVIPIVLLHNGHSA | < -0.25
GVSLGSNGAILRPVALSSDP | < -0.25
RLNEKLFDVD | < -0.25
CIISFGTG | < -0.25
IQSRYRRVRH | < -0.25
NDCSDNGAWVEPVQLNLTRG | -0.228
ERCARSRAWIHFDFFDMIDV | < -0.25
HVLE | < -0.25
RSKWAGELLRGAKFKDMLNN | < -0.25
KIGSHAL | < -0.25
SGHYYARFYTLCGGTPRRQW | < -0.25
SYFIFKLPVCCACCGLWTRF | < -0.25
SEGGASRGLIVNSH | < -0.25
IGECGPSLYGLGLRTVKYSL | < -0.25
GEVMRYCHLPRRRDPAVIAR | < -0.25
YMGRRPWASGNVSPI | < -0.25
SIIRWLSHMSDLFGRDIFGD | < -0.25
SVSNVGPDRWAVVREPTIRN | < -0.25
LNCRTSCTVRDGGMCIVRGH | < -0.25

Substance | growth estimate
ELVGSRASLLAGTVFLLCH | < -0.25
STACLTRVLESNAYVSRLES | < -0.25
YDIEERGRINFLVHLYYYGA | < -0.25
GRGFVAIIRMACARLLLILA | < -0.25
SLMTQCQYRFCVKLS | < -0.25
GVTRFIGSRYSRFFA | < -0.25
AKG | < -0.25
SEVSIR | < -0.25
WEGTVYYRYWVTRPYLARIM | < -0.25
TAGPSQV | < -0.25
NRRADGGASTHTSPLLFQAG | < -0.25
SNTISVRVARKASNIFSSCA | < -0.25
FGGFRTVPPVPQSRPVRRVC | < -0.25
VSLP | < -0.25
HPSVRGFQGHIRTGSPSPVQ | < -0.25
GPVEYARDSHPDVLVPRRLH | < -0.25
SSGSIDLALRHTLIQMCLTP | < -0.25
GMISGTELSLVMHVNS | < -0.25
GILLSVTAECICSFRFHWQL | < -0.25
GLLFGQE | < -0.25
GRPWSAGPRGHYT | < -0.25
VCRSSLSIIVFGGPAYLNRL | -0.246
RLVKKSLTREGSTIIA | < -0.25

Random excerpt: five entries already listed, in no set order.
Substance | growth estimate
GILLSVTAECICSFRFHWQL | < -0.25
AKG | < -0.25
GRPWSAGPRGHYT | < -0.25
GLLFGQE | < -0.25
GMISGTELSLVMHVNS | < -0.25

Source: the supplement of paper PMC5949888
